In PubChem BioAssay AID192 (DTP/NCI, 2004) one finds survivor count and T/C data, which are given here for 31 compounds.

The structures appear in SMILES notation. The list is a part of this screen's results and no random one: it is rich in T/C values a quarter to a half above the control, in often repeated tests (any T/C) and in doses without a T/C. Other doses and runs of a compound stand elsewhere. T/C is the treated group as % of the vehicle group. Some doses have a count of surviving animals in place of a T/C: the source files T/C as zero there, which appears to mark a toxic dose or a test without result, not a measured value. Some survivor counts are full or nearly so, which does not show that the dose was tolerated: survival well below the control is almost never listed, so the zero probably covers shortened survival too. Survivors were counted at the toxicity check, usually on the fifth day, unless a day is given; later deaths do not show. Schedule codes are those of the source, read here as Q, the interval in days (D) or hours (H), X, the number of doses. Some entries were tested several times; their values stand side by side, smallest first. Where survival is the endpoint, this PubChem deposit counts one and a half times the control or more as active, and values a quarter to a half above the control carry no call in these data; other NCI protocols may use other cut-offs. Some T/C values carry the count of animals alive at the toxicity check (mostly the fifth day); without a count, all were alive then. Peptide text beside a SMILES is read from it. * marks the point of attachment. Cbz = O=C(OCc1ccccc1)*

The test system of this assay is BDF1 mice, B16 melanoma ip, median survival T/C. The assay is described as follows: NCI In Vivo Anticancer Drug Screen. Data for tumor model B16 Melanoma (intraperitoneal) in B6D2F1 (BDF1) mice. Conditions: T/C endpoint: median survival time, higher T/C = longer survival. The procedure, abridged:
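Compounds were tested in mice carrying transplantable tumors. Survival or tumor size was recorded, and each value is the treated-group measurement (T) divided by that of the vehicle-treated control group (C).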

The mark [1] stands for this setting: dose: 200.0 mg/kg/injection, schedule: Q01DX009 (ip), vehicle: Klucel (hydroxypropylcellulose) (HPC).
Setting [2] is: dose: 400.0 mg/kg/injection, schedule: Q01DX009 (ip), vehicle: Klucel (hydroxypropylcellulose) (HPC).
The mark [3] stands for this setting: dose: 400.0 mg/kg/injection, schedule: Q01DX009 (ip), vehicle: saline with Tween-80.
[4] abbreviates: dose: 50.0 mg/kg/injection, schedule: Q01DX009 (ip), vehicle: Klucel (hydroxypropylcellulose) (HPC).
Setting [5] is: dose: 100.0 mg/kg/injection, schedule: Q01DX009 (ip), vehicle: Klucel (hydroxypropylcellulose) (HPC).
Where [6] appears, read: dose: 25.0 mg/kg/injection, schedule: Q01DX009 (ip), vehicle: saline with Tween-80.
[7] abbreviates: dose: 50.0 mg/kg/injection, schedule: Q01DX009 (ip), vehicle: saline with Tween-80.
[8] abbreviates: dose: 3.12 mg/kg/injection, schedule: Q01DX009 (ip), vehicle: saline.
Setting [9] is: dose: 6.25 mg/kg/injection, schedule: Q01DX009 (ip), vehicle: saline with Tween-80.
Setting [10] is: dose: 12.5 mg/kg/injection, schedule: Q01DX009 (ip), vehicle: saline with Tween-80.
The mark [11] stands for this setting: dose: 200.0 mg/kg/injection, schedule: Q01DX009 (ip), vehicle: saline.
Where [12] appears, read: dose: 400.0 mg/kg/injection, schedule: Q01DX009 (ip), vehicle: saline.
Setting [13] is: dose: 25.0 mg/kg/injection, schedule: Q01DX009 (ip), vehicle: saline.
Where [14] appears, read: dose: 100.0 mg/kg/injection, schedule: Q01DX009 (ip), vehicle: saline with Tween-80.
Where [15] appears, read: dose: 200.0 mg/kg/injection, schedule: Q01DX009 (ip), vehicle: saline with Tween-80.

With `CCCCCCCCCCCCCCCCCC(=O)NCNC(=O)CCCCCCCCCCCCCCCCC`, the survivor count (dose: 18.75 mg/kg/injection, schedule: Q04DX003 (ip), vehicle: saline with Tween-80) is given as 10 of 10.

In the case of `Cc1cc(Cl)ccc1NC(=O)Nc1ccccc1Cl`, the survivor count was 10 of 10 (dose: 75.0 mg/kg/injection, schedule: Q01DX009 (ip), vehicle: Klucel (hydroxypropylcellulose) (HPC)); 10 of 10 (dose: 150.0 mg/kg/injection, schedule: Q01DX009 (ip), vehicle: Klucel (hydroxypropylcellulose) (HPC)); 10 of 10 (dose: 300.0 mg/kg/injection, schedule: Q01DX009 (ip), vehicle: Klucel (hydroxypropylcellulose) (HPC)).

With `CCC[CH2][Sn]([CH2]CCC)[CH2]CCC.CCC[CH2][Sn]([CH2]CCC)[CH2]CCC`, the survivor count is 5 of 6 (dose: 10.0 mg/kg/injection, schedule: Q01DX009 (ip), vehicle: Klucel (hydroxypropylcellulose) (HPC)); 2 of 6 (dose: 20.0 mg/kg/injection, schedule: Q01DX009 (ip), vehicle: Klucel (hydroxypropylcellulose) (HPC)); 0 of 6 (dose: 40.0 mg/kg/injection, schedule: Q01DX009 (ip), vehicle: Klucel (hydroxypropylcellulose) (HPC)).

With `CCN(C(=O)Nc1ccccc1OC)c1ccccc1`, the survivor count under setting [1] is given as 6 of 6 and the survivor count under setting [2] is 2 of 6.

As to `CCCCNC1=C(N2CC2)C(=O)C(NCCCC)=C(N2CC2)C1=O`, the T/C was 134 % of control (dose: 5.0 mg/kg/injection, schedule: Q01DX009 (ip), vehicle: saline) and 136 % of control [9 of 10 alive] (dose: 10.0 mg/kg/injection, schedule: Q01DX009 (ip), vehicle: saline).

For the compound `CNc1ccccc1C(N)=O`, under setting [2], the survivor count is on record as 10 of 10.

As to `O=C(NC(Cc1ccccc1)C(=O)N1CCCC1C(=O)O)OCc1ccccc1` (stereo not drawn) (Cbz-Phe-Pro-OH; configuration not given here), the survivor count under setting [3] is reported as 8 of 10.

As for `CC(=O)NC(C=O)C(O)C(O)C(O)C(=O)O` (stereo unspecified) (tested in a mixture with another compound), the survivor count is, setting by setting: (dose: 25.0 mg/kg/injection, schedule: Q01DX009 (ip), vehicle: Klucel (hydroxypropylcellulose) (HPC)) 3 of 10; under setting [4], 5 of 10; under setting [5], 0 of 10.

Regarding `O=C1c2cccc3cc([N+](=O)[O-])cc(c23)C(=O)N1CCN1CCCC1`, the survivor count is, setting by setting: under setting [6], 9 of 10; under setting [7], 10 of 10.

On to `CSc1ccc2c(c1)N(CCCN(C)C)c1ccccc1S2`, for which, under setting [8], the T/C is 148 % of control.

Take `CCN(C(=O)CCl)C(C)(C)C(SSSC(c1ccc(Cl)cc1)C(C)(C)N(CC)C(=O)CCl)c1ccc(Cl)cc1` (stereo unspecified): the survivor count is 9 of 10 under setting [4] and 8 of 10 under setting [5].

For `COc1cc2c(cc1OC)C(CCc1ccc(Cl)cc1)N(C)CC2` (stereo unspecified), the survivor count under setting [2] was 0 of 10.

`CC(C)(C)OC(=O)N1CCCC1C(=O)O` (stereo unspecified): the survivor count by setting is: under setting [5], 10 of 10; under setting [1], 10 of 10; under setting [2], 2 of 10.

`CCC[CH2][Hg][Cl]`: the survivor count (dose: 3.0 mg/kg/injection, schedule: Q01DX009 (ip), vehicle: saline with Tween-80) is recorded as 10 of 10; the survivor count under setting [9] is recorded as 10 of 10; the survivor count under setting [10] is on record as 10 of 10; the survivor count under setting [6] is 5 of 10; the survivor count under setting [7] is given as 0 of 10.

In the case of `CCC(C)OC(N)=O` (stereo unspecified), the T/C reads like this: under setting [11], 129 % of control; under setting [12], 126 % of control.

As for `CSc1ccc2c(c1)C(N1CCN(C)CC1)Cc1ccccc1S2` (stereo unspecified), the survivor count is listed as 9 of 10 under setting [9], 6 of 10 under setting [10], 2 of 10 under setting [6] and 0 of 10 under setting [7].

For the compound `Cc1nc(NCc2ccccc2)c2cc[nH]c2n1`, the T/C (dose: 0.19 mg/kg/injection, schedule: Q01DX009 (ip), vehicle: saline) was 129 % of control and the T/C (dose: 0.78 mg/kg/injection, schedule: Q01DX009 (ip), vehicle: saline) was 129 % of control. Moreover, the survivor count reads like this: (dose: 1.56 mg/kg/injection, schedule: Q01DX009 (ip), vehicle: saline) 10 of 10; under setting [8], 10 of 10; (dose: 6.25 mg/kg/injection, schedule: Q01DX009 (ip), vehicle: saline) 10 of 10; (dose: 12.5 mg/kg/injection, schedule: Q01DX009 (ip), vehicle: saline) 10 of 10; under setting [13], 5 of 10.

In the case of `C1CCC(C2OCCO2)CC1`, under setting [12], the survivor count is 10 of 10.

For the compound `N#Cc1ccc(NC(=O)Nc2nccs2)cc1`, the T/C is 126 % of control (dose: 25.0 mg/kg/injection, schedule: Q01DX009 (ip), vehicle: distilled water + Tween-80); 131 % of control (dose: 50.0 mg/kg/injection, schedule: Q01DX009 (ip), vehicle: distilled water + Tween-80); 132 % of control (dose: 100.0 mg/kg/injection, schedule: Q01DX009 (ip), vehicle: distilled water + Tween-80). Moreover, the survivor count (dose: 200.0 mg/kg/injection, schedule: Q01DX009 (ip), vehicle: distilled water + Tween-80) is 2 of 10.

For the compound `CC1CC(C)(O)CC(C(O)CC2CC(=O)NC(=O)C2)C1=O` (stereo unspecified), the survivor count (dose: 4.08 mg/kg/injection, schedule: Q04DX003 (ip), vehicle: saline) is 8 of 8.

With `CNc1nc(N(C)C)nc(N(C)C)n1`, the T/C (dose: 25.0 mg/kg/injection, schedule: Q01DX009 (ip), vehicle: water) is 130 % of control. The survivor count under setting [11] is on record as 10 of 10; the survivor count (dose: 200.0 mg/kg/injection, schedule: Q01DX009 (ip), vehicle: water) is 9 of 10 and 10 of 10.

Turning to `O=C(Nc1ccccc1F)Nc1ccccc1Cl`, the survivor count by setting is: under setting [5], 10 of 10; under setting [1], 10 of 10; under setting [2], 9 of 10 and 10 of 10.

Turning to `CC(C)C(=O)[O][Sn]([c]1ccccc1)([c]1ccccc1)[c]1ccccc1`, the survivor count runs as follows: under setting [6], 8 of 10; under setting [7], 1 of 10.

Take `CN(C)CCCNC(=O)Nc1ccccc1`: the survivor count under setting [2] is recorded as 0 of 10.

`CCCCCC/C=C\C(=O)O`: the survivor count is reported as 10 of 10 under setting [14] and 2 of 10 under setting [15].

`Cc1cc(C)cc(OC(=O)/C=C/C(=O)Oc2cc(C)cc(C)c2)c1`: the survivor count by setting is: under setting [15], 10 of 10; under setting [3], 10 of 10.

As to `CCCCCCCCCCOCCCCCCCCCC`, the survivor count under setting [14] is recorded as 10 of 10.

`CCN(CC)CC#CCCCCN(CC)CC`: the survivor count was 10 of 10 under setting [13] and 10 of 10 (dose: 100.0 mg/kg/injection, schedule: Q01DX009 (ip), vehicle: saline).

Take `O=C(O)c1ccc2c3c(ccc(C(=O)O)c13)CC2`: the survivor count is on record as 10 of 10 under setting [5] and 6 of 10 under setting [1].

As for `COc1cc2c3c(c4ccc(OC)c(OC)c4c2cc1OC)CN1CCC[C@@H]1C3`, for the setting “dose: 16.0 mg/kg/injection, schedule: Q01DX009 (ip), vehicle: saline with Tween-80”, the T/C is 128 % of control. Besides, the survivor count was 6 of 6 (dose: 32.0 mg/kg/injection, schedule: Q01DX009 (ip), vehicle: saline with Tween-80) and 4 of 6 (dose: 64.0 mg/kg/injection, schedule: Q01DX009 (ip), vehicle: saline with Tween-80).

Regarding `CCCCC(CC)C(O)C1CCCCC1O` (stereo unspecified), the survivor count under setting [2] is recorded as 4 of 6.
